Results are given in words; binding and its absence hold for the method and conditions named. Some results given as binding are weak or reduced against the parent protein; the word gives no strength. Where a sequence is shown, tags or fusion partners need not be part of it.
Columns and labels:
GST-IL31.P12-E21.L20A [1] = molecular target: T1, GST-IL31.P12-E21.L20A; assay: immunoblot of GST-IL31 fragment fusions probed with mouse M14 (panel label reads 'Anti-IL13 (hybridoma)'); anti-GST blot below
T1 sequence (GST fusion protein): PSDVRKIIAE

[2] = molecular target: T2, pGEX_GST-IL31. P12-E21*(clone 24-7); assay: as above
T2 sequence (GST fusion protein): PSDVRKIILE

GST-IL31.P12-E21.I19A [3] = molecular target: T3, GST-IL31.P12-E21.I19A; assay: as above
T3 sequence (GST fusion protein): PSDVRKIALE

[4] = molecular target: T2, pGEX_GST-IL31. P12-E21*(clone 24-7); assay: immunoblot of E. coli lysates with GST-IL31 fragment fusions; probe is M14 or caninized M14, the sheet does not say which; anti-GST blot below
GST-IL31.P12-E21.V15A = molecular target: T4, GST-IL31.P12-E21.V15A; assay: immunoblot of GST-IL31 fragment fusions; probe is M14 or caninized M14, the sheet does not say which; anti-GST blot below
T4 sequence (GST fusion protein): PSDARKIILE

[5] = molecular target: T2, pGEX_GST-IL31. P12-E21*(clone 24-7); assay: as above
[6] = molecular target: T5, pGEX_GST-IL31. P12-E21*.R16A (Clones 53.1 & 53.8); assay: immunoblot of E. coli lysates with GST-IL31 fragment fusions; probe is M14 or caninized M14, the sheet does not say which; anti-GST blot below shows lanes 3 and 8 loaded
T5 sequence (GST fusion protein): PSDVAKIILE

GST-IL31.P12-E21.L20A [7] = molecular target: T1, GST-IL31.P12-E21.L20A; assay: immunoblot of GST-IL31 fragment fusions probed with caninized M14 (panel label reads 'Anti-IL13 (caninized)'); anti-GST blot below
[8] = molecular target: T2, pGEX_GST-IL31. P12-E21*(clone 24-7); assay: as above
GST-IL31.P12-E21.I18A = molecular target: T6, GST-IL31.P12-E21.I18A; assay: as above
T6 sequence (GST fusion protein): PSDVRKAILE

GST-IL31.P12-E21.I19A [9] = molecular target: T3, GST-IL31.P12-E21.I19A; assay: as above
GST-IL31(P34-K58*) = molecular target: T7, GST-IL31(P34-K58*); assay: immunoblot of GST-canine IL31 fusions expressed in E. coli, membrane probed with chimeric M14; anti-GST blot of the same samples in Fig. 6B
T7 sequence (GST fusion protein): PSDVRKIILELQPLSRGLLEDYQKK

GST-IL31(P34-K58*).E43A = molecular target: T8, GST-IL31(P34-K58*).E43A; assay: as above
T8 sequence (GST fusion protein): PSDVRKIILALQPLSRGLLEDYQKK

[10] = molecular target: T9, GST canine IL31 fragment fusion containing the minimal fragment (SEQ ID NO: 23) (canine); assay: as above
T9 sequence: PSDVRKIILELQPLSRG

[11] = molecular target: T9, GST canine IL31 fragment fusion containing the minimal fragment (SEQ ID NO: 23) (canine); assay: immunoblot of GST canine IL31 fragment fusions probed with chimeric M14

Measured: binding

B1: monoclonal antibody M14 (mouse antibody clone M14) (antibody, V domains shown)
VH: EVQLQESGPSLVKPSQTLSLTCSVTGDSITSGYWNWIRKFPGNKLEYMGYISYSGITDYNPSLKSRISITRDTSKNQYYLQLNSVTTEDTATYYCARYGNYGYAMDYWGQGTSVTVSS
VL: DIVLTQSPASLAVSLGQRATISCRASESVDTYGNSFMHWYQQKSGQSPKLLIYRASNLESGIPARFGGSGSRTDFTLTIDPVEADDVATYYCQQSYEDPWTFGGGTKLEIK
binds: GST-IL31.P12-E21.L20A [1] | [2] | GST-IL31.P12-E21.I19A [3] | [4] | GST-IL31.P12-E21.V15A | [5] | [6]

B2: caninized M14 IgG-B (antibody, V domains shown)
VH: EVQLVESGPSLVKPGGSLRLTCSVTGDSITSGYWNWIRKFPGNKLEYMGYISYSGITDYNPSLKSRITISRDTSKNQYYLQLNSVTTEDTATYYCARYGNYGYAMDYWGQGTLVTVSS
VL: DIVMTQSPASLSVSLGQRATISCRASESVDTYGNSFMHWYQQKPGQSPKLLIYRASNLESGIPARFGGSGSGTDFTLTIDPVQADDVATYYCQQSYEDPWTFGGGTKLEIKR
notes: Caninized M14 on canine IgG-B with canine light chain constant region; also called caninized M14 antibody
binds: GST-IL31.P12-E21.L20A [7] | [8] | GST-IL31.P12-E21.I18A | GST-IL31.P12-E21.I19A [9]

B3: chimeric M14 (murine M14 VH and VL fused to canine IgG-B constant heavy chain and canine constant light chain) (antibody, V domains shown)
VH: EVQLQESGPSLVKPSQTLSLTCSVTGDSITSGYWNWIRKFPGNKLEYMGYISYSGITDYNPSLKSRISITRDTSKNQYYLQLNSVTTEDTATYYCARYGNYGYAMDYWGQGTSVTVSS
VL: DIVLTQSPASLAVSLGQRATISCRASESVDTYGNSFMHWYQQKSGQSPKLLIYRASNLESGIPARFGGSGSRTDFTLTIDPVEADDVATYYCQQSYEDPWTFGGGTKLEIKR
notes: expressed in CHO cells, Protein A purified; also called chimeric M14 antibody
binds: GST-IL31(P34-K58*) | GST-IL31(P34-K58*).E43A | [10] | [11]

Reference: patent publication US20230312702A1 (KINDRED BIOSCIENCES, published 2023)
